The values below come from article PMC5861252.

Results are given in words; binding and its absence hold for the method and conditions named. In cells and extracts the contact can be indirect. Binding can be weak; no strength is given.

This test addresses H-NS2 with a His tag at the N-terminal end (6His-H-NS2, plasmid pLATE51-6HisH-NS2) (E. coli strain 042). The experiment in a line: pull-down; purified His-tagged H-NS2 (tag at the C- or N-terminal end) mixed with E. coli 042 total protein extract, purified again on Ni2+-agarose (A50 buffer: 20 mM HEPES, 100 mM KCl, 5 mM MgCl2, 50 mM imidazole; eluted with 200 mM to 1 M imidazole); SDS-PAGE with Coomassie blue, bands identified by LC-MS/MS; only the target purified.

B1: H-NS protein of E. coli strain 042 (protein, UniProt P0ACF8 1-137)
chain: MSEALKILNNIRTLRAQARECTLETLEEMLEKLEVVVNERREEESAAAAEVEERTRKLQQYREMLIADGIDPNELLNSLAAVKSGTKAKRAQRPAKYSYVDENGETKTWTGQGRTPAVIKKAMDEQGKSLDDFLIKQ
In the case of B1, the binding result was “binds”.
